From paper doi:10.1101/2021.05.12.443731 come the findings set out here.

No constants are given. Whether binding was seen depends on the method and setting. Binding seen in cells or lysates may run through a third protein. These calls come from enrichment with a bait or labelling near it, and not all partners need be listed.

Common to all, as to assay: affinity purification with mass spectrometry
Assay [1] deals with T1, FOSL2 (human (endogenous in Th17 cells)), P15408.
T1 chain: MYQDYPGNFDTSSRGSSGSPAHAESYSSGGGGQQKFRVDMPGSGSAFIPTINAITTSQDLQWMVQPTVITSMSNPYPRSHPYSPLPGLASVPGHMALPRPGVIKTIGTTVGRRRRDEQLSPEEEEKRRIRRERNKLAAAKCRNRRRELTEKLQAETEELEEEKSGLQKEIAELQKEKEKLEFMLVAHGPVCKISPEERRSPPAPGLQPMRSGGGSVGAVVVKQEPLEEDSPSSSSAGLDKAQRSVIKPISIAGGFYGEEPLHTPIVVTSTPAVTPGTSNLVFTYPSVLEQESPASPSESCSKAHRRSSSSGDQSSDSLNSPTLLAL
The settings on record: remark: other sources report otherwise.

The target of assay [2] is T2, FOSL1 (human (endogenous in Th17 cells)), P15407.
T2 chain: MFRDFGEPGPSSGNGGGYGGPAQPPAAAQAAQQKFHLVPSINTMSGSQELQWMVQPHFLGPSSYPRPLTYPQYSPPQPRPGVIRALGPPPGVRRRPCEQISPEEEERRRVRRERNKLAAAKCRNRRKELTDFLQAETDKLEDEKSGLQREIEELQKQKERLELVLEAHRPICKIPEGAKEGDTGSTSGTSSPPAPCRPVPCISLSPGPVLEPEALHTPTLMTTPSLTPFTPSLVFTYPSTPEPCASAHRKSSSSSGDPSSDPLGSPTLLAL
Particulars: remark: other sources report otherwise.

Assay [3] has as its target T3, FOSL1 (human (endogenous in Th17 cells)) (UniProt P15407).
T3 sequence: T2 chain

Assay [4] deals with T4, FOSL2 (human (endogenous in Th17 cells)) (UniProt P15408).
T4 sequence: T1 chain

B1: JUN, P05412 1-331 (protein)
chain: MTAKMETTFYDDALNASFLPSESGPYGYSNPKILKQSMTLNLADPVGSLKPHLRAKNSDLLTSPDVGLLKLASPELERLIIQSSNGHITTTPTPTQFLCPKNVTDEQEGFAEGFVRALAELHSQNTLPSVTSAAQPVNGAGMVAPAVASVAGGSGSGGFSASLHSEPPVYANLSNFNPGALSSGGGAPSYGAAGLAFPAQPQQQQQPPHHLPQQMPVQHPRLQALKEEPQTVPEMPGETPPLSPIDMESQERIKAERKRMRNRIAASKCRKRKLERIARLEEKVKTLKAQNSELASTANMLREQVAQLKQKVMNHVNSGCQLMLTQQLQTF
With B1, the binding result in assay [1] is reported as “binds”.

B2: JUNB, P17275 1-347 (protein)
chain: MCTKMEQPFYHDDSYTATGYGRAPGGLSLHDYKLLKPSLAVNLADPYRSLKAPGARGPGPEGGGGGSYFSGQGSDTGASLKLASSELERLIVPNSNGVITTTPTPPGQYFYPRGGGSGGGAGGAGGGVTEEQEGFADGFVKALDDLHKMNHVTPPNVSLGATGGPPAGPGGVYAGPEPPPVYTNLSSYSPASASSGGAGAAVGTGSSYPTTTISYLPHAPPFAGGHPAQLGLGRGASTFKEEPQTVPEARSRDATPPVSPINMEDQERIKVERKRLRNRLAATKCRKRKLERIARLEDKVKTLKAENAGLSSTAGLLREQVAQLKQKVMTHVSNGCQLLLGVKGHAF
Consider B2, for which, in assay [2], the binding entry is “binds”.

B3: ADAR (protein, UniProt P55265 1-1226)
chain: MNPRQGYSLSGYYTHPFQGYEHRQLRYQQPGPGSSPSSFLLKQIEFLKGQLPEAPVIGKQTPSLPPSLPGLRPRFPVLLASSTRGRQVDIRGVPRGVHLRSQGLQRGFQHPSPRGRSLPQRGVDCLSSHFQELSIYQDQEQRILKFLEELGEGKATTAHDLSGKLGTPKKEINRVLYSLAKKGKLQKEAGTPPLWKIAVSTQAWNQHSGVVRPDGHSQGAPNSDPSLEPEDRNSTSVSEDLLEPFIAVSAQAWNQHSGVVRPDSHSQGSPNSDPGLEPEDSNSTSALEDPLEFLDMAEIKEKICDYLFNVSDSSALNLAKNIGLTKARDINAVLIDMERQGDVYRQGTTPPIWHLTDKKRERMQIKRNTNSVPETAPAAIPETKRNAEFLTCNIPTSNASNNMVTTEKVENGQEPVIKLENRQEARPEPARLKPPVHYNGPSKAGYVDFENGQWATDDIPDDLNSIRAAPGEFRAIMEMPSFYSHGLPRCSPYKKLTECQLKNPISGLLEYAQFASQTCEFNMIEQSGPPHEPRFKFQVVINGREFPPAEAGSKKVAKQDAAMKAMTILLEEAKAKDSGKSEESSHYSTEKESEKTAESQTPTPSATSFFSGKSPVTTLLECMHKLGNSCEFRLLSKEGPAHEPKFQYCVAVGAQTFPSVSAPSKKVAKQMAAEEAMKALHGEATNSMASDNQPEGMISESLDNLESMMPNKVRKIGELVRYLNTNPVGGLLEYARSHGFAAEFKLVDQSGPPHEPKFVYQAKVGGRWFPAVCAHSKKQGKQEAADAALRVLIGENEKAERMGFTEVTPVTGASLRRTMLLLSRSPEAQPKTLPLTGSTFHDQIAMLSHRCFNTLTNSFQPSLLGRKILAAIIMKKDSEDMGVVVSLGTGNRCVKGDSLSLKGETVNDCHAEIISRRGFIRFLYSELMKYNSQTAKDSIFEPAKGGEKLQIKKTVSFHLYISTAPCGDGALFDKSCSDRAMESTESRHYPVFENPKQGKLRTKVENGEGTIPVESSDIVPTWDGIRLGERLRTMSCSDKILRWNVLGLQGALLTHFLQPIYLKSVTLGYLFSQGHLTRAICCRVTRDGSAFEDGLRHPFIVNHPKVGRVSIYDSKRQSGKTKETSVNWCLADGYDLEILDGTRGTVDGPRNELSRVSKKNIFLLFKKLCSFRYRRDLLRLSYGEAKKAARDYETAKNYFKKGLKDMGYGNWISKPQEEKNFYLCPV
As for B3, the binding entry in assay [3] and in assay [4] was “binds” each time.
